# According to PubChem BioAssay AID624297 (National Center for Advancing Translational Sciences (NCATS), 2012):
# Screen size: about 340,000 compounds; about 6,200 (1.8%) were called active. Inconclusive means that the source gave no clear call. Such entries were picked first, then a sample of the others. Calls follow the shape of the dose curve; as a rule, active = well fitted activation curve with a large enough effect; inconclusive = small, poorly fitted or top-dose-only effect; inactive = no such curve, though single readings can be large or run the other way. Where the call is inconclusive, the potency comes from a doubtful curve fit.
# Test: A quantitative high throughput screen for small molecules that induce DNA re-replication in SW480 colon adenocarcinoma cells. Also: nearly all actives have a fitted effect of over 55% in size. As to re-replication activation: % of control where 0% means no effect.
# Details: Hoechst DNA content imaging, 48 h; re-replication activation: at 46.1 µM (top of the series) unless noted
# How it was run: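 Readout is total intensity of Hoechst-stained nuclei, excited at 405 nm and collected at 500-530 nm. Compound treatment lasted 48 hr at 37 C in 5% CO2 before staining.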
# Potency is read from the fitted curve at half-maximal effect.
Compound,re-replication activation,Potency
COc1cccc(C2NC(=S)NC3=C2CCc2ccccc23)c1 (configuration not stated),inactive: -172%,–
CN(C)CCOc1nc(-c2ccccc2)nc2c1oc1ccccc12,–,"inconclusive: 20.6 µM [activator, single point]"
Cc1cc(/C=C2/C(=O)NN(c3ccccc3)C2=O)c(C)n1-c1cccc(O)c1,inactive: 2.79%,–
COc1ccccc1NC(=O)c1ccc2c(O)c(S(=O)(=O)c3ccccc3)c(=O)[nH]c2c1,inactive: 3.18%,–
COc1ccc2[nH]c(C)c(CCNC(=S)Nc3ccc(C)cc3)c2c1,–,"inconclusive: 9.2 µM [activator, partial curve]"
CC[N+](CC)(CC)CCCCOc1ccc2c(c1)C(=O)c1cc(OCCCC[N+](CC)(CC)CC)ccc1-2,–,"inconclusive: 5.8 µM [activator, full curve, poor fit]"
O=c1cc(-c2ccc(Cl)cc2)nc(N2CCN(c3ccccc3)CC2)[nH]1,inconclusive: 76.1% [activator],–
CCOc1ccc(CNC(=S)N/N=C/c2ccncc2)cc1,–,"inconclusive: 10.3 µM [activator, partial curve, poor fit]"
CCOc1ccc(N=C2NC(=O)S/C2=C\c2ccc(N(C)C)cc2)cc1,–,"inconclusive: 29.1 µM [activator, single point]"
COC(=O)c1nn2c(C(F)(F)F)cc(-c3ccc(Br)o3)nc2c1Br,–,"inconclusive: 16.4 µM [activator, single point]"
COc1cccc(-c2nn(-c3ccccc3)cc2/C=C(\C#N)C(=O)NCCCn2ccnc2)c1,–,"inconclusive: 32.6 µM [activator, partial curve, poor fit]"
Cc1ccc(C(=O)N2CCN(c3ccc(NC(=O)c4cccs4)cc3)CC2)cc1,inactive: -1.1%,–
O=C(NCc1ccccn1)c1ccc2ccccc2n1,inactive: 1.07%,–
Cc1ccc(/C=C2/NC(=O)N(Cc3ccccc3)C2=O)s1,inactive: 3.6%,–
CC1CCCN(C(=O)C(=O)c2cn(CC(=O)N3CCCCCC3)c3ccccc23)C1 (configuration not stated),–,"inconclusive: 18.4 µM [activator, single point]"
Cc1ccc(C2=NOC(C)(c3nnc(-c4ccc(Cl)cc4)o3)C2)cc1 (configuration not stated),–,"inconclusive: 6.51 µM [activator, single point]"
COc1ccc([C@@H]2OC2(C(N)=O)C(N)=O)cc1,–,"inconclusive: 4.11 µM [activator, full curve, poor fit]"
Cc1c(S(=O)(=O)N2CCCCC2)c(=O)n(C)c(=O)n1C,–,"inconclusive: 29.1 µM [activator, partial curve, poor fit]"
Cc1ccc(C(NC(N)=O)c2ccccc2)cc1 (configuration not stated),–,"inconclusive: 20.6 µM [activator, single point]"
Cn1c(/C=C/c2ccc(Br)cc2)c([N+](=O)[O-])c(=O)n(C)c1=O,–,"inconclusive: 18.4 µM [activator, single point]"
CCN(C(=O)CSc1nc(C)nc2sc(C)c(C)c12)c1ccc(F)cc1,inactive: 4.85%,–

# Entries of single compounds, looked up by structure:
# CCN(C(=O)CSc1nc(C)nc2sc(C)c(C)c12)c1ccc(F)cc1 as listed: re-replication activation: inactive: 4.85%
# COc1cccc(C2NC(=S)NC3=C2CCc2ccccc23)c1 (configuration not stated) as listed: re-replication activation: inactive: -172%

# Continued.

Compound,re-replication activation,Potency
CCCCCCCCCn1c2c(c(=N)c3c1CCC3)CCCC2,–,"inconclusive: 10.3 µM [activator, partial curve, poor fit]"
O=S(=O)(NCC(Nc1ccccc1)c1ccccc1)c1ccc(Cl)cc1 (configuration not stated),–,"inconclusive: 16.4 µM [activator, single point]"
CCN(CC)CCCN(Cc1cc2cc(OC)ccc2[nH]c1=O)C(=O)Nc1ccc(F)cc1,–,"inconclusive: 29.1 µM [activator, single point]"
COc1ccc(C(=O)N2CCCN(C)CC2)c(OC)c1,inconclusive: 38.7% [activator],–
O=c1cc(N/N=C/c2ccccc2)[nH]c(=O)[nH]1,–,"inconclusive: 2.31 µM [activator, full curve]"
CCOc1ccc(C2NC(=O)NC(C)=C2C(=O)OCc2ccccc2)cc1 (configuration not stated),–,"inconclusive: 25.9 µM [activator, single point]"
CC1CCCCC1NC(=O)COC(=O)c1c2c(nc3ccccc13)/C(=C/c1ccco1)CC2 (configuration not stated),–,active: 14.6 µM
Cn1c(CNC(=O)CNC(=O)Cc2ccccc2)cc(=O)n(C)c1=O,–,"inconclusive: 0.461 µM [activator, full curve, poor fit]"
CCc1ccccc1NC(=O)CSc1nnc(-c2cc(C)[nH]n2)n1N,inactive: 0.245%,–
COc1ccc(CCN(C(=O)C(F)(F)F)C(C(=O)NC2CCCC2)c2cccs2)cc1 (configuration not stated),–,"inconclusive: 20.6 µM [activator, partial curve, poor fit]"
COc1ccc(-c2nc(-c3cccc(C)c3)nc(N3CCN(C)CC3)c2C#N)cc1,–,"inconclusive: 2.06 µM [activator, partial curve]"
O=C(NCc1cccnc1)C(=O)Nc1cc2c3c(c1)CC(=O)N3CCC2,inactive: -1.25%,–
Cc1cc2oc(=O)cc(CN3CCCCC3)c2cc1C(C)C,inactive: 0.648%,–
Cc1cccc(C(=O)N2CCNC(=O)C2CC(=O)Nc2cccc(Cl)c2)c1 (configuration not stated),–,"inconclusive: 5.17 µM [activator, full curve, poor fit]"
Cc1[nH]nc(-c2ccc(OCc3cnn(-c4ccccc4)c3)c(C)c2O)c1Oc1ccccc1,–,"inconclusive: 18.4 µM [activator, partial curve, poor fit]"
C[C@]12c3[nH]c4cc(-c5ccco5)ccc4c3CCN1C(=O)[C@@H](CC(=O)NCc1cccc(C(F)(F)F)c1)C[C@@H]2C(=O)N1CCOCC1,–,"inconclusive: 29.1 µM [activator, single point]"
O=C(N/N=C/c1[nH]c2ccccc2c1Cl)c1cccc(Br)c1,–,"inconclusive: 29.1 µM [activator, single point]"
O=C(NN=C1CCCC1)c1[nH]c2ccc(Br)cc2c1-c1ccccc1,–,"inconclusive: 25.9 µM [activator, single point]"
CN1/C(=C\C(=O)COC(=O)c2ccccc2O)C(C)(C)c2ccccc21,–,"inconclusive: 29.1 µM [activator, single point]"
COc1ccc(/C=N/NC(=O)c2cccc([N+](=O)[O-])c2)cc1OS(=O)(=O)c1ccccc1,inactive: 3.92%,–
O=C(Cn1cnc2c(nnn2Cc2ccc(F)cc2)c1=O)NCc1ccccc1,–,"inconclusive: 20.6 µM [activator, single point]"
